Measured values published in article PMC9952942.
These are yes or no findings as the source states them, for the method shown. In cells and extracts the contact can be indirect. Some entries that bind do so weakly or less than the wild type. For some assays here: Sequences can lack the tags named with a protein.

By UniProt entry, the sequences of proteins in these tests, tags left out.
UniProt P14635: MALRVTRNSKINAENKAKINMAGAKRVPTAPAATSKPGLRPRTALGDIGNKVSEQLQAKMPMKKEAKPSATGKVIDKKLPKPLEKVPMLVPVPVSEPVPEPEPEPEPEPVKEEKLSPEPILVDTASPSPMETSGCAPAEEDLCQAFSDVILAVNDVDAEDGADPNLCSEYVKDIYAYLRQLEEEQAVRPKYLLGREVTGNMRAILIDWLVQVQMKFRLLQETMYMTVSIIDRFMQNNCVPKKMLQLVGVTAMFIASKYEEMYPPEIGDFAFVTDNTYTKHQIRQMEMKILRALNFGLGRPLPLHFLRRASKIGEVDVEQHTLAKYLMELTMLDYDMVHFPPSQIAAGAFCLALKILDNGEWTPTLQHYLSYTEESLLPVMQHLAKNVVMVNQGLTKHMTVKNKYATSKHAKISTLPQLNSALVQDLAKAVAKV
UniProt Q9UM11: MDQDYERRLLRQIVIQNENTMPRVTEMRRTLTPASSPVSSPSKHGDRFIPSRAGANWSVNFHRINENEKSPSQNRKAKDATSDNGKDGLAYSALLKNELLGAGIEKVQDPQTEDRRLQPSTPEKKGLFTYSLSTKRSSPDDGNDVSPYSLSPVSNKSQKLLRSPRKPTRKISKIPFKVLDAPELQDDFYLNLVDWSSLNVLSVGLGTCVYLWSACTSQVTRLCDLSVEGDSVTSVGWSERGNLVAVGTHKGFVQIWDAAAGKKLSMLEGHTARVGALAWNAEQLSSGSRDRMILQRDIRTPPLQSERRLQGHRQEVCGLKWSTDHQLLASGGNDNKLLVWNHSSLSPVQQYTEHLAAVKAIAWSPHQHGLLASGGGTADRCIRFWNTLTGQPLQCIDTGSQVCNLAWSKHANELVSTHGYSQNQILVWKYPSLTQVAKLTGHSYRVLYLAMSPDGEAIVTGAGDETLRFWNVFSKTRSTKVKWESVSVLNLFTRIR

Key:
[1] = target: Cyclin B1, endogenous (human (endogenous in PC3)) (UniProt P14635); experiment: co-IP; anti-Cyclin B1 (control IgG alongside) immunoprecipitation from 0.5 mg RIPA lysate of control and Nocodazole-arrested (post-G2) PC3 cells; immunoblot with anti-HN1
[2] = target: Cdh1 (co-factor of APC/C), endogenous (human (endogenous in PC3)) (UniProt Q9UM11); experiment: co-IP; anti-Cdh1 (control IgG alongside) immunoprecipitation from RIPA lysates of vector- and HM-HN1-transfected PC3 cells; immunoblot with anti-HN1

Row | binding [1] | binding [2] | Binder
1 | binds | – | Hematological and neurological expressed 1 (HN1), endogenous (protein, UniProt Q9UK76 1-154) MTTTTTFKGVDPNSRNSSRVLRPPGGGSNFSLGFDEPTEQPVRKNKMASNIFGTPEENQASWAKSAGAKSSGGREDLESSGLQRRNSSEASSGDFLDLKGEGDIHENVDTDLPGSLGQSEEKPVPAAPVPSPVAPAPVPSRRNPPGGKSSLVLG
2 | – | binds | HM-HN1 (HN1 ORF in pcDNA4-HisMax), transiently expressed in PC3 cells (protein, UniProt Q9UK76 1-154) MTTTTTFKGVDPNSRNSSRVLRPPGGGSNFSLGFDEPTEQPVRKNKMASNIFGTPEENQASWAKSAGAKSSGGREDLESSGLQRRNSSEASSGDFLDLKGEGDIHENVDTDLPGSLGQSEEKPVPAAPVPSPVAPAPVPSRRNPPGGKSSLVLG
